No constants are given. Whether binding was seen depends on the method and setting. For some assays here: In cells and extracts the contact can be indirect. Some binding calls cover weakened binding; strength is not graded here. For some assays here: Sequences can lack the tags named with a protein.
T1: Sis1 (S. cerevisiae (endogenous in 74-D694 yeast)) (UniProt P25294)
T1 sequence: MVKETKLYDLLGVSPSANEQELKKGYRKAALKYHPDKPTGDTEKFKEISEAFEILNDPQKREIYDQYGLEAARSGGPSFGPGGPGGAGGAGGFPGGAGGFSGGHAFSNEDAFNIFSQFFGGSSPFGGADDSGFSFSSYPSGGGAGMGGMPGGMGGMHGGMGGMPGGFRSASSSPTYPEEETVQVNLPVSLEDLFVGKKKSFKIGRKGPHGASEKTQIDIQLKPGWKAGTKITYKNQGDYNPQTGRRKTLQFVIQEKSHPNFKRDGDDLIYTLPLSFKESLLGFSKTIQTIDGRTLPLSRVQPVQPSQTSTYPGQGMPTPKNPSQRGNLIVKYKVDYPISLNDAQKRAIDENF

T2: Rnq1 (S. cerevisiae (endogenous in 74-D694 yeast)) (UniProt P25367)
T2 sequence: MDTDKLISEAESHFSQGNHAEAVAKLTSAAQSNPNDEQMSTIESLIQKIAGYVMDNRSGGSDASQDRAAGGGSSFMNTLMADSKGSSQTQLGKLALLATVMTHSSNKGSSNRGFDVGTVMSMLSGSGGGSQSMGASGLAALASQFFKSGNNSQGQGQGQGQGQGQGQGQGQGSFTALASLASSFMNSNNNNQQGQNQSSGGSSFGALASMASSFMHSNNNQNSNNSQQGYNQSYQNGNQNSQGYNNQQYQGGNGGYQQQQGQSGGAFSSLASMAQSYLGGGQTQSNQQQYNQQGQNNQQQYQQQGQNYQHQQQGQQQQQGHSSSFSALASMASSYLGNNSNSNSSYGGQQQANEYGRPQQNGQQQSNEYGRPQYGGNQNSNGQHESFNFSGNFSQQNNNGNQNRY


Experiments:
[1] = target: T1, Sis1 (S. cerevisiae (endogenous in 74-D694 yeast)); assay: co-IP; Sis1 immunoprecipitated with αSis1 antibody and Protein G Sepharose from lysates of [RNQ+] yeast cells (s.d. low, s.d. medium, s.d. high, s.d. very high, m.d. high); 50 mM Tris pH 8, 150 mM NaCl, 1 mM EDTA, 0.2% Triton X-100; 4°C; immunoblot with αRnq1 and αSis1
[2] = target: T1, Sis1 (S. cerevisiae (endogenous in 74-D694 yeast)); assay: co-IP; Sis1 immunoprecipitated with αSis1 antibody and Protein G Sepharose from lysates of [rnq−] yeast cells; 50 mM Tris pH 8, 150 mM NaCl, 1 mM EDTA, 0.2% Triton X-100; 4°C; immunoblot with αRnq1 and αSis1
[3] = target: T2, Rnq1 (S. cerevisiae (endogenous in 74-D694 yeast)); assay: well-trap assay (joining assay); [RNQ+] yeast cells; construct induced 3 hrs in galactose; lysates in 2% SDS sample buffer at room temperature or 100°C, SDS-PAGE, blot with αRnq1; aggregated Rnq1 is retained in the wells when not boiled
[4] = target: T2, Rnq1 (S. cerevisiae (endogenous in 74-D694 yeast)); assay: well-trap assay (joining assay); [rnq−] yeast cells; construct induced 3 hrs in galactose; lysates in 2% SDS sample buffer at room temperature or 100°C, SDS-PAGE, blot with αRnq1

Row | binding [1] | binding [2] | Binder | binding [3] | binding [4]
1 | binds | no binding (condition: in [rnq−] cells) | Rnq1(132-405) (domain or fragment, UniProt P25367 132-405) SMGASGLAALASQFFKSGNNSQGQGQGQGQGQGQGQGQGQGSFTALASLASSFMNSNNNNQQGQNQSSGGSSFGALASMASSFMHSNNNQNSNNSQQGYNQSYQNGNQNSQGYNNQQYQGGNGGYQQQQGQSGGAFSSLASMAQSYLGGGQTQSNQQQYNQQGQNNQQQYQQQGQNYQHQQQGQQQQQGHSSSFSALASMASSYLGNNSNSNSSYGGQQQANEYGRPQQNGQQQSNEYGRPQYGGNQNSNGQHESFNFSGNFSQQNNNGNQNRY | – | –
2 | binds | no binding (condition: in [rnq−] cells) | Rnq1 (protein, UniProt P25367 1-405) MDTDKLISEAESHFSQGNHAEAVAKLTSAAQSNPNDEQMSTIESLIQKIAGYVMDNRSGGSDASQDRAAGGGSSFMNTLMADSKGSSQTQLGKLALLATVMTHSSNKGSSNRGFDVGTVMSMLSGSGGGSQSMGASGLAALASQFFKSGNNSQGQGQGQGQGQGQGQGQGQGSFTALASLASSFMNSNNNNQQGQNQSSGGSSFGALASMASSFMHSNNNQNSNNSQQGYNQSYQNGNQNSQGYNNQQYQGGNGGYQQQQGQSGGAFSSLASMAQSYLGGGQTQSNQQQYNQQGQNNQQQYQQQGQNYQHQQQGQQQQQGHSSSFSALASMASSYLGNNSNSNSSYGGQQQANEYGRPQQNGQQQSNEYGRPQYGGNQNSNGQHESFNFSGNFSQQNNNGNQNRY | – | –

The next lines start with the binder.

Row | Binder | binding [1] | binding [2] | binding [3] | binding [4]
3 | Rnq1-PFD (153-405) (domain or fragment, UniProt P25367 153-405) QGQGQGQGQGQGQGQGQGQGSFTALASLASSFMNSNNNNQQGQNQSSGGSSFGALASMASSFMHSNNNQNSNNSQQGYNQSYQNGNQNSQGYNNQQYQGGNGGYQQQQGQSGGAFSSLASMAQSYLGGGQTQSNQQQYNQQGQNNQQQYQQQGQNYQHQQQGQQQQQGHSSSFSALASMASSYLGNNSNSNSSYGGQQQANEYGRPQQNGQQQSNEYGRPQYGGNQNSNGQHESFNFSGNFSQQNNNGNQNRY | – | – | binds | no binding (condition: in [rnq−] cells)
4 | HA-Rnq1 (protein, UniProt P25367 1-405) MDTDKLISEAESHFSQGNHAEAVAKLTSAAQSNPNDEQMSTIESLIQKIAGYVMDNRSGGSDASQDRAAGGGSSFMNTLMADSKGSSQTQLGKLALLATVMTHSSNKGSSNRGFDVGTVMSMLSGSGGGSQSMGASGLAALASQFFKSGNNSQGQGQGQGQGQGQGQGQGQGSFTALASLASSFMNSNNNNQQGQNQSSGGSSFGALASMASSFMHSNNNQNSNNSQQGYNQSYQNGNQNSQGYNNQQYQGGNGGYQQQQGQSGGAFSSLASMAQSYLGGGQTQSNQQQYNQQGQNNQQQYQQQGQNYQHQQQGQQQQQGHSSSFSALASMASSYLGNNSNSNSSYGGQQQANEYGRPQQNGQQQSNEYGRPQYGGNQNSNGQHESFNFSGNFSQQNNNGNQNRY | – | – | binds | no binding (condition: in [rnq−] cells)

— publication PMC4014422
